The assay addresses T1, VEGFR1 (mouse, endogenous in MAEC, MVEC, trigeminal ganglion neurons and mouse tissues) (mouse (endogenous in MAEC, MVEC, trigeminal ganglion neurons and mouse tissues)) (UniProt P35969).
T1 sequence: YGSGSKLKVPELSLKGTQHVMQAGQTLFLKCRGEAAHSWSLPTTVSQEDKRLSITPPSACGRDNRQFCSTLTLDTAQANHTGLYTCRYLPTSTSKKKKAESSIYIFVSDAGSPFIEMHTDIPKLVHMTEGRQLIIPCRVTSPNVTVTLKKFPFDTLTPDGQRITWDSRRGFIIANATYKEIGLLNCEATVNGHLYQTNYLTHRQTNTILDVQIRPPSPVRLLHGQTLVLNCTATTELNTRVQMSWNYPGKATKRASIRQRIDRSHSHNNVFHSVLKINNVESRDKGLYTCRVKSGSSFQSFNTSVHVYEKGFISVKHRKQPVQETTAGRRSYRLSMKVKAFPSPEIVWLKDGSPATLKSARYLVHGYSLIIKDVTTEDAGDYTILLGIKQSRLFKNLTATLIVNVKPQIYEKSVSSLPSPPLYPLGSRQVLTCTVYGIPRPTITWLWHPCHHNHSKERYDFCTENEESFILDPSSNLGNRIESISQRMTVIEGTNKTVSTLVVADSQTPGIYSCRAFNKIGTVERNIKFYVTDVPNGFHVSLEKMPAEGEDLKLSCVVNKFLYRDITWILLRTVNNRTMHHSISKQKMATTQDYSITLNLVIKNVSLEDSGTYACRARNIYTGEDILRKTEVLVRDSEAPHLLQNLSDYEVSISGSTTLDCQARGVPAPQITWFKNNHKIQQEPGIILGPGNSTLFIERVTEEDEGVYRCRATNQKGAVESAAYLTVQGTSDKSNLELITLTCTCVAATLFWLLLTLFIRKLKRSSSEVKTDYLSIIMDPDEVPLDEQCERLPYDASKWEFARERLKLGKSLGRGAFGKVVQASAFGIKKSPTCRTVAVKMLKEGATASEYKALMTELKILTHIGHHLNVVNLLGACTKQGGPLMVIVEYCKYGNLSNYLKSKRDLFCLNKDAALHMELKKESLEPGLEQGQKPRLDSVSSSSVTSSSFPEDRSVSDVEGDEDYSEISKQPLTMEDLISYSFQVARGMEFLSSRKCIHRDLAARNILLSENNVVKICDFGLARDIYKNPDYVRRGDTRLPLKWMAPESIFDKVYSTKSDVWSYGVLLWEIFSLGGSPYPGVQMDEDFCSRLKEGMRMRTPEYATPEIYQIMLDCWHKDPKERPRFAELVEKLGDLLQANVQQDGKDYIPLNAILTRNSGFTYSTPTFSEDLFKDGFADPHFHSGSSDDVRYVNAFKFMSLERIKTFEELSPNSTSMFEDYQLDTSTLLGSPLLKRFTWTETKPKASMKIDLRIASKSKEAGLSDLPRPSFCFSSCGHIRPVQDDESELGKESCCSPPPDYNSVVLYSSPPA
The assay can be described thus: proximity ligation; Duolink PLA on fixed MAEC; anti-VEGFR1 and anti-VEGFR2 with PLUS and MINUS probes (the same antibody with both probes for homodimers); signal only within 40 nm.

These are yes or no findings as the source states them, for the method shown. Binding seen in cells or lysates may run through a third protein. Some entries that bind do so weakly or less than the wild type.

B1: VEGFR1 (mouse, endogenous in MAEC, MVEC, trigeminal ganglion neurons and mouse tissues) (receptor, UniProt P35969 23-1333, looked up)
chain: YGSGSKLKVPELSLKGTQHVMQAGQTLFLKCRGEAAHSWSLPTTVSQEDKRLSITPPSACGRDNRQFCSTLTLDTAQANHTGLYTCRYLPTSTSKKKKAESSIYIFVSDAGSPFIEMHTDIPKLVHMTEGRQLIIPCRVTSPNVTVTLKKFPFDTLTPDGQRITWDSRRGFIIANATYKEIGLLNCEATVNGHLYQTNYLTHRQTNTILDVQIRPPSPVRLLHGQTLVLNCTATTELNTRVQMSWNYPGKATKRASIRQRIDRSHSHNNVFHSVLKINNVESRDKGLYTCRVKSGSSFQSFNTSVHVYEKGFISVKHRKQPVQETTAGRRSYRLSMKVKAFPSPEIVWLKDGSPATLKSARYLVHGYSLIIKDVTTEDAGDYTILLGIKQSRLFKNLTATLIVNVKPQIYEKSVSSLPSPPLYPLGSRQVLTCTVYGIPRPTITWLWHPCHHNHSKERYDFCTENEESFILDPSSNLGNRIESISQRMTVIEGTNKTVSTLVVADSQTPGIYSCRAFNKIGTVERNIKFYVTDVPNGFHVSLEKMPAEGEDLKLSCVVNKFLYRDITWILLRTVNNRTMHHSISKQKMATTQDYSITLNLVIKNVSLEDSGTYACRARNIYTGEDILRKTEVLVRDSEAPHLLQNLSDYEVSISGSTTLDCQARGVPAPQITWFKNNHKIQQEPGIILGPGNSTLFIERVTEEDEGVYRCRATNQKGAVESAAYLTVQGTSDKSNLELITLTCTCVAATLFWLLLTLFIRKLKRSSSEVKTDYLSIIMDPDEVPLDEQCERLPYDASKWEFARERLKLGKSLGRGAFGKVVQASAFGIKKSPTCRTVAVKMLKEGATASEYKALMTELKILTHIGHHLNVVNLLGACTKQGGPLMVIVEYCKYGNLSNYLKSKRDLFCLNKDAALHMELKKESLEPGLEQGQKPRLDSVSSSSVTSSSFPEDRSVSDVEGDEDYSEISKQPLTMEDLISYSFQVARGMEFLSSRKCIHRDLAARNILLSENNVVKICDFGLARDIYKNPDYVRRGDTRLPLKWMAPESIFDKVYSTKSDVWSYGVLLWEIFSLGGSPYPGVQMDEDFCSRLKEGMRMRTPEYATPEIYQIMLDCWHKDPKERPRFAELVEKLGDLLQANVQQDGKDYIPLNAILTRNSGFTYSTPTFSEDLFKDGFADPHFHSGSSDDVRYVNAFKFMSLERIKTFEELSPNSTSMFEDYQLDTSTLLGSPLLKRFTWTETKPKASMKIDLRIASKSKEAGLSDLPRPSFCFSSCGHIRPVQDDESELGKESCCSPPPDYNSVVLYSSPPA
notes: VEGF receptor 1 (VEGFR-1, flt-1), endogenous in mouse aortic and venous endothelial cell lines, thy1-YFP mouse trigeminal ganglion neurons and mouse tissues; Endogenous protein; also called flt-1; Flt-1; source: endogenous, MAEC and MVEC lysates; endogenous, mouse tissue lysates (thoracic aorta, portal vein, dorsal root ganglia, trigeminal ganglia, cornea); endogenous, fixed MAEC, MVEC and …
For B1, the binding result is “binds weakly”.

For the origin of these results see publication PMC9302817, “VEGF receptor heterodimers and homodimers are differentially expressed in neuronal and endothelial cell types” (PLoS ONE, 2022).
